Laboratory results as given in publication PMC9071494.
Results are given in words; binding and its absence hold for the method and conditions named. Binding seen in cells or lysates may run through a third protein. Some binding calls cover weakened binding; strength is not graded here. For some assays here: Tags and fused reporters may be left off the sequences shown.

By UniProt entry, the sequences of proteins in these tests, tags left out.
UniProt P50750: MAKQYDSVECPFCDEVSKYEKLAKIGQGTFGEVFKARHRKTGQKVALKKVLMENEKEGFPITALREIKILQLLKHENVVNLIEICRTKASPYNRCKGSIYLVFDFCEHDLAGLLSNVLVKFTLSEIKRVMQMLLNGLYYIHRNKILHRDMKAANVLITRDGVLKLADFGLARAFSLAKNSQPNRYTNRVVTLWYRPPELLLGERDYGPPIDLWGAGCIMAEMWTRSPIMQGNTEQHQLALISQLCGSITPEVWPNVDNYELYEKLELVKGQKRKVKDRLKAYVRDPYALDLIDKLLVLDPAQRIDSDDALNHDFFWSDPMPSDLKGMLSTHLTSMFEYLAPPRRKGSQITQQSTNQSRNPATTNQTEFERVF
UniProt Q15648: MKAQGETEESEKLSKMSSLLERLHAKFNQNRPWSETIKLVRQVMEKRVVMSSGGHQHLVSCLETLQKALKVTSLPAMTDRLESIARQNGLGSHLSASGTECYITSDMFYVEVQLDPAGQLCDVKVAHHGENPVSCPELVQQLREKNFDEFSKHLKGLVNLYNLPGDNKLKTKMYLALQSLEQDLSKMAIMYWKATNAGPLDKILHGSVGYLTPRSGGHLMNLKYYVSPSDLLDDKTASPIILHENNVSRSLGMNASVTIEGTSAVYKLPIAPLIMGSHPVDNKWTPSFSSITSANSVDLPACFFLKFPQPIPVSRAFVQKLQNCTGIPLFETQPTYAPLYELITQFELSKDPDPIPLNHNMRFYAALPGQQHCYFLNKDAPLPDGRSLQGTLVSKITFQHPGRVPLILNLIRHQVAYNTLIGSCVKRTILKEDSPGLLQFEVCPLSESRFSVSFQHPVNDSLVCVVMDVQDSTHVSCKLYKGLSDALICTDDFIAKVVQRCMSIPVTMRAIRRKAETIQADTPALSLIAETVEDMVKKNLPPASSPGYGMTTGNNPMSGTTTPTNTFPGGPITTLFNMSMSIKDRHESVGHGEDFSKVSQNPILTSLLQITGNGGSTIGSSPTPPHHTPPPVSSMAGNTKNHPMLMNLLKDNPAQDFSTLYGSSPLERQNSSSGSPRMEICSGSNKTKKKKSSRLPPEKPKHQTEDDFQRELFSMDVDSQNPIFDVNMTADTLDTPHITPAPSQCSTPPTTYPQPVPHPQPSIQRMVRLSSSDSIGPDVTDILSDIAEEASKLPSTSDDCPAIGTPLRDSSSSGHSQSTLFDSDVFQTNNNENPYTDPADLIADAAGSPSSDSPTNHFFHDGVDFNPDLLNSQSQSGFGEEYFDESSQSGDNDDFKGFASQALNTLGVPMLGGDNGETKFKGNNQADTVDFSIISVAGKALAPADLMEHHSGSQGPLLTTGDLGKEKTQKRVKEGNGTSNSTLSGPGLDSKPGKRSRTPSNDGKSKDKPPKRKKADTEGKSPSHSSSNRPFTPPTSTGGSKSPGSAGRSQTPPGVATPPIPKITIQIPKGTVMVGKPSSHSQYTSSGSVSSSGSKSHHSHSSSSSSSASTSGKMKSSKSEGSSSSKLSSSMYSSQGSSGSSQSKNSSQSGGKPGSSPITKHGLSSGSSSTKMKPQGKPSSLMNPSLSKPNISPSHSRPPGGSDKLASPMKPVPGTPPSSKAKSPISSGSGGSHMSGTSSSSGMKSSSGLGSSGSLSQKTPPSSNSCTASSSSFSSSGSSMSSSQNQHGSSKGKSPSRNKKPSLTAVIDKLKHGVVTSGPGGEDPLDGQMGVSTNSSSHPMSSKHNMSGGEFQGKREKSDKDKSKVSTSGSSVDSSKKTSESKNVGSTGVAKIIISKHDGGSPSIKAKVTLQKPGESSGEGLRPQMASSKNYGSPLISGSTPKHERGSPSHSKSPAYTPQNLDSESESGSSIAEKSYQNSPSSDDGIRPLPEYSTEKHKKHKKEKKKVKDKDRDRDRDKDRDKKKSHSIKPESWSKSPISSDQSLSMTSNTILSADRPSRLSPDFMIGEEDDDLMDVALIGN

Tests used:
[1] = molecular target: T1, GST–MED31 (human) (UniProt Q9Y3C7); experiment: pull-down; GST fusion protein immobilised on magneGST particles, 5 μl of in vitro translated MED1 or RPB1, 200 μl magneGST binding/washing buffer, 1 h at 4°C, five washes; western blot for MED1 or RPB1; only the target purified
T1 sequence: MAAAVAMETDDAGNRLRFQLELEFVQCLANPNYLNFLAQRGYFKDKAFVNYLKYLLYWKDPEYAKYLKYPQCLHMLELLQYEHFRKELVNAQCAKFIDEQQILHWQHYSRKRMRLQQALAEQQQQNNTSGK

[2] = molecular target: cyclin-dependent kinase 9 (human (endogenous in LNCaP-abl)) (UniProt P50750); experiment: co-IP; LNCaP-abl nuclear extracts diluted with 25 mM Tris pH 7.4, 0.15 M NaCl, 1 mM EDTA, 1% NP-40, 5% glycerol; CDK9 antibody on protein A beads 2 h at 4°C; washed with 50 mM Tris pH 8.0, 150 mM NaCl, 0.2% NP-40; blot for pMED1 and CDK9

Row | binding [1] | binding [2] | Substance
1 | binds |  | in vitro translated full-length MED1 (from UniProt Q15648 1-1581)
2 |  | binds | phosphorylated MED1 (MED1 phosphorylated at threonine 1032) (from UniProt Q15648 1-1581)
